Measured data: PubChem BioAssay AID602196 (INSERM, 2012)

- Test: 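Modifiers of cisplatin sensitivity in A549 cells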
- Cell system: human A549 lung cancer cells
- Reagents: siRNA pair against human genes
- Duration: 48 h transfection before cisplatin; time from cisplatin to read-out not stated
- Conditions: cisplatin at a dose killing half of control-siRNA cells; exact dose and duration not given
- Read-out: 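Shift in cisplatin death relative to control siRNA, from -50 (all cells die) to +50 (no cells die); siRNAs harmful on their own scored 0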
- Direction: two-siRNA summed score (-2 to +2): higher = both siRNAs protect from cisplatin killing; -2 means both sensitise; mean protection from cisplatin (shift in death) and protection from cisplatin (shift in death), siRNA C and protection from cisplatin (shift in death), siRNA D: higher = protection from cisplatin killing
- Active means: 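siRNAs harmful alone (LDH or WST-1) get 0; others get +1 for less and -1 for more cisplatin killing; genes are active when the two siRNAs give the same sign, summing to ±2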
- Calls: active = both siRNAs shift cisplatin killing the same way; inactive = no consistent shift, or siRNA harmful alone
The whole screen tested about 23,000 reagents; shown is an unselected part. 455 of them (2%) count as active. 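Active includes both protection and sensitisation; some change values fall well beyond the stated -50 to +50 range.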 Reagents against one gene are numbered here. Not given: the amount of reagent.

no.	gene knocked down	reagent	two-siRNA summed score (-2 to +2)	mean protection from cisplatin (shift in death) (%)	protection from cisplatin (shift in death), siRNA C (%)	protection from cisplatin (shift in death), siRNA D (%)	Call
1	ZNF691	1	0	-0.4	-1.9	1.2	inactive
2	PHOX2A	1	-1	-2.5	4.9	-10	inactive
3	LOC401951	1	0	5.1	3.8	6.3	inactive
4	NAF1	1	0	-0.5	2.3	-3.3	inactive
5	S100A8	1	1	12.6	19.2	5.9	inactive
6	BRAT1	1	0	6	4.6	7.4	inactive
7	LOC402057	1	0	22.8	29.4	16.2	inactive
8	GEMIN8	1	0	8.9	9.8	8	inactive
9	LOC441903	1	0	15.7	14.7	16.7	inactive
10	VSTM1	1	0	-2.4	2.9	-7.8	inactive
11	LOC441321	1	0	0.6	1.5	-0.4	inactive
12	PHB2	1	-1	-7.1	8.9	-23.1	inactive
13	PABIR1	1	0	5.5	7.5	3.5	inactive
14	PSMD12	1	1	18.3	17.3	19.2	inactive
15	CSF1	1	0	9	8.8	9.3	inactive
16	NSUN5P1	1	0	12.9	6.9	18.8	inactive
17	LOC344988	1	0	10.1	7.7	12.5	inactive
18	ZMYM5	1	0	1.8	23.2	-19.5	inactive
19	LOC283801	1	0	11.3	-0.7	23.3	inactive
20	LOC389447	1	0	1	4.3	-2.2	inactive
21	H3C2	1	0	8.6	17.6	-0.4	inactive
22	PTPRN2	1	0	4.4	-9.1	17.9	inactive
23	CRISP3	1	0	6.7	5.3	8.1	inactive
24	FERMT3	1	1	15.7	21.7	9.7	inactive
25	PLS3	1	-1	-4.3	-18.8	10.3	inactive
26	LOC339553	1	1	14.4	22.8	6	inactive
27	STARD10	1	1	16.4	8	24.8	inactive
28	ABCA7	1	-1	1.9	30.3	-26.6	inactive
29	CIDEC	1	0	-11.8	-24	0.4	inactive
30	STMN3	1	0	-8.9	-15.6	-2.3	inactive
31	TBL3	1	0	-1	-11.7	9.6	inactive
32	LOC440679	1	1	13.9	10.5	17.4	inactive
33	KCNMB2	1	1	3.3	-5.1	11.7	inactive
34	KRT3	1	0	7.3	31.2	-16.6	inactive
35	LOC147710	1	0	-2.8	-1.9	-3.8	inactive
36	LOC441897	1	1	15.8	8.9	22.7	inactive
37	PCDHGA8	1	0	5.2	5.8	4.6	inactive
38	WDR90	1	-1	-9.8	-14.1	-5.6	inactive
39	WDR90	2	-1	-5.7	4.1	-15.5	inactive
40	SAMD4B	1	0	16.9	13.1	20.6	inactive
41	KIAA1975	1	1	15.2	10.6	19.8	inactive
42	STAT4	1	0	-5.9	-6	-5.7	inactive
43	LOC402643	1	0	1.1	3.7	-1.5	inactive
44	HOXA1	1	-1	-17.1	-13	-21.2	inactive
45	RALGAPA1	1	1	18.4	13.5	23.4	inactive
46	REDIC1	1	0	9.3	6.9	11.7	inactive
47	LYSET	1	0	-0.7	11.9	-13.2	inactive
48	LOC387885	1	0	7.6	24.1	-8.9	inactive
49	MAMDC2	1	0	1.5	6.2	-3.3	inactive
50	MTIF3	1	0	1.7	0.3	3	inactive
51	FOXA3	1	1	9.3	11.2	7.4	inactive
52	CRNKL1	1	0	4.7	2.5	6.9	inactive
53	LOC152015	1	0	8.4	16.1	0.7	inactive
54	OR4S1	1	0	9.4	13.9	4.8	inactive
55	IFITM3P9	1	0	6.5	6.4	6.7	inactive
56	ADAM23	1	-1	-10.3	2.2	-22.8	inactive
57	LOC388929	1	0	3.4	-0.9	7.8	inactive
